# Measured values as given in the supplement of paper PMC9233669.
# This sample is rich in variants without activity.
# Assays:
# biotinyl-Trp-oxazolone = test: self-aminoacylation, catalytic enhancement (BWO) (fold over background); higher = more active; k-Seq, kA / k0A0; sequences stand for … in GGGAAUGGAUCCACAUCUACGAAUUC…UUCACUGCAGACUUGACGAAGCUG
# Method in brief: (§1)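 Catalytic enhancement equals the median kA over the uncatalyzed rate, the latter read from the low-activity peak of a bimodal Gaussian fit. Values of kA came from fitting each sequence's fraction reacted to a pseudo-first-order model, with 1000 bootstraps. Reacted RNA was captured with streptavidin and quantified by triplicate qPCR and Illumina sequencing after 90 minutes at room temperature with 2–1250 μM biotinyl-aminoacyl-oxazolone and 0.43 μM mutagenized RNA pools bearing a 21-nt variable region.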
# biotinyl-Leu-oxazolone = test: self-aminoacylation, catalytic enhancement (BLO) (fold over background); higher = more active; k-Seq, kA / k0A0; sequences stand for … in GGGAAUGGAUCCACAUCUACGAAUUC…UUCACUGCAGACUUGACGAAGCUG
# Method in brief: as §1
# biotinyl-Val-oxazolone = test: self-aminoacylation, catalytic enhancement (BVO) (fold over background); higher = more active; k-Seq, kA / k0A0; sequences stand for … in GGGAAUGGAUCCACAUCUACGAAUUC…UUCACUGCAGACUUGACGAAGCUG
# Method in brief: as §1
# biotinyl-Phe-oxazolone = test: self-aminoacylation, catalytic enhancement (BFO) (fold over background); higher = more active; k-Seq, kA / k0A0; sequences stand for … in GGGAAUGGAUCCACAUCUACGAAUUC…UUCACUGCAGACUUGACGAAGCUG
# Method in brief: as §1
# biotinyl-Met-oxazolone = test: self-aminoacylation, catalytic enhancement (BMO) (fold over background); higher = more active; k-Seq, kA / k0A0; sequences stand for … in GGGAAUGGAUCCACAUCUACGAAUUC…UUCACUGCAGACUUGACGAAGCUG
# Method in brief: as §1
# biotinyl-Ile-oxazolone = test: self-aminoacylation, catalytic enhancement (BIO) (fold over background); higher = more active; k-Seq, kA / k0A0; sequences stand for … in GGGAAUGGAUCCACAUCUACGAAUUC…UUCACUGCAGACUUGACGAAGCUG
# Method in brief: as §1
Sequence,self-aminoacylation (biotinyl-Trp-oxazolone),self-aminoacylation (biotinyl-Leu-oxazolone),self-aminoacylation (biotinyl-Val-oxazolone),self-aminoacylation (biotinyl-Phe-oxazolone),self-aminoacylation (biotinyl-Met-oxazolone),self-aminoacylation (biotinyl-Ile-oxazolone)
AUUCACUUAGGUCAUAGGGUG [Fam2.2 aminoacylation ribozyme variant],1.85,2.08,1.29,3.24,1.82,1.37
AAGUUUGCUAAUAGACGAAAG [Fam3.1 aminoacylation ribozyme variant],0.739,0.5,0.541,0.618,0.578,0.61
AAGUUUGCUAUUAGUCGCACG [Fam3.1 aminoacylation ribozyme variant],1.34,1.08,0.747,1.21,0.883,0.955
AAGUUUGCUUAUAGUCGCAAA [Fam3.1 aminoacylation ribozyme variant],1.67,1.42,1.31,2.38,1.38,1.47
CCACAUUUCAAGCAAUCGGAC [Fam1B.1 aminoacylation ribozyme variant],0.924,1.07,1.21,0.953,1.04,1.3
CCUCACUUCAAGCAAACGGUC [Fam1B.1 aminoacylation ribozyme variant],0.839,0.625,0.843,1.34,0.481,0.665
AAGUUUGAUAAUAGUCGCGAG [Fam3.1 aminoacylation ribozyme variant],1.13,1.07,0.995,0.847,0.981,0.981
AAGUUUGCUUAUAGUCGAAAG [Fam3.1 aminoacylation ribozyme variant],0.991,0.795,0.919,0.839,0.828,0.883
CUACUUCAAACAAGCGGUCAG [Fam1A.1 aminoacylation ribozyme variant],0.774,0.811,0.674,0.856,0.771,0.698
CCAAACUUCAAGCAAUCGGUA [Fam1B.1 aminoacylation ribozyme variant],1.14,1.1,1.11,1.06,0.992,1.23
CCACUUCAAACAAACGGUCUG [Fam1A.1 aminoacylation ribozyme variant],0.592,0.609,0.815,0.554,1.19,0.894
CUACUUCGAACAAUGGGUCUG [Fam1A.1 aminoacylation ribozyme variant],0.39,0.674,0.759,0.322,0.624,0.778
CCACUCUUCAAGCAACCGGUC [Fam1B.1 aminoacylation ribozyme variant],1.3,1.25,1.26,1.17,1.05,1.62
AUUACCCUGGUCAACGAUUGA [Fam2.1 aminoacylation ribozyme variant],0.43,0.697,0.799,0.776,0.831,0.659
CAGUUUGCUAAUUGUCGCAAG [Fam3.1 aminoacylation ribozyme variant],1.25,1.85,1.52,1.16,1.46,1.44
AUUAACCUAGGUCAUCGGAUG [Fam2.2 aminoacylation ribozyme variant],0.823,0.699,0.977,0.454,0.818,0.927
AUUACCCUGGUCAUCAAGUCA [Fam2.1 aminoacylation ribozyme variant],0.535,0.687,0.843,0.534,0.619,0.781
CCACACCUCAAGCAAUCGGAC [Fam1B.1 aminoacylation ribozyme variant],0.428,0.797,1.02,0.453,0.89,1.1
AAGUUUGCUACUAGUCGCGAG [Fam3.1 aminoacylation ribozyme variant],1.35,1.49,1.42,1.25,1.48,1.49
CCACACUUGAAGCAAACGGUC [Fam1B.1 aminoacylation ribozyme variant],0.492,0.532,0.69,0.765,0.422,0.576
AAGUUUGUUAAUAGUCGCGAG [Fam3.1 aminoacylation ribozyme variant],1.57,1.52,1.14,1.35,1.5,1.39
CCACACUGCAUGCAAUCGGUC [Fam1B.1 aminoacylation ribozyme variant],0.659,0.507,0.857,0.714,0.803,0.875
AUACACCUAGGUCAUCGUGUG [Fam2.2 aminoacylation ribozyme variant],0.685,1.11,0.98,0.628,0.968,0.982
CCACACUUCAGGCAAUCGGUC [Fam1B.1 aminoacylation ribozyme variant],1.28,1.11,1.27,1.47,1.14,1.14
CCACACUUUAACCAAUCGGUC [Fam1B.1 aminoacylation ribozyme variant],1.03,0.749,1,1.39,0.761,0.901
AUUCACCUAGGUCAACGGUUG [Fam2.2 aminoacylation ribozyme variant],0.94,0.71,0.808,1.03,0.808,0.852

Sequence,self-aminoacylation (biotinyl-Trp-oxazolone),self-aminoacylation (biotinyl-Leu-oxazolone),self-aminoacylation (biotinyl-Val-oxazolone),self-aminoacylation (biotinyl-Phe-oxazolone),self-aminoacylation (biotinyl-Met-oxazolone),self-aminoacylation (biotinyl-Ile-oxazolone)
AAGUUUGCUAAUAGUCGCGAG [Fam3.1 aminoacylation ribozyme variant],2,1.29,1.2,2.01,1.33,1.33
CUACUUCAAACAAACGGUCUC [Fam1A.1 aminoacylation ribozyme variant],0.448,0.651,0.686,1,0.599,0.671
AAGUUUGCGAAUAGUCGCAAG [Fam3.1 aminoacylation ribozyme variant],1.01,0.905,0.968,1.14,0.998,0.93
CUGCUUCAAACAGUCGGUCUG [Fam1A.1 aminoacylation ribozyme variant],0.692,0.951,0.837,0.936,0.764,0.804
CCACACUUCAAGCAAUCGCUU [Fam1B.1 aminoacylation ribozyme variant],1.93,2.09,1.77,0.996,2.06,1.83
CCACACUUCAGGCAAACGGUC [Fam1B.1 aminoacylation ribozyme variant],0.725,0.88,1.11,0.961,0.911,0.841
CCACACUUCCAGCCAUCGGUC [Fam1B.1 aminoacylation ribozyme variant],1.35,1.49,1.98,0.676,1.48,1.66
AAGUUUGCUACUGGUCGCAAG [Fam3.1 aminoacylation ribozyme variant],1.18,0.632,0.735,0.917,0.75,0.674
AUACUUCAAAGAAUCGGUCUG [Fam1A.1 aminoacylation ribozyme variant],1.38,0.76,0.723,1.6,0.702,0.748
CCACUUCAAACAAGCGGUCUG [Fam1A.1 aminoacylation ribozyme variant],1.34,1.26,0.896,0.647,1.07,1.12
CCACACGUCCAGCAAUCGGUC [Fam1B.1 aminoacylation ribozyme variant],1.18,1.18,1.92,0.691,1.28,1.38
UAGUUUGCUAAUACUCGCAAG [Fam3.1 aminoacylation ribozyme variant],1.11,0.871,0.794,1.28,0.648,0.915
CCACACUCCAAGCAAUGGGUC [Fam1B.1 aminoacylation ribozyme variant],0.728,0.795,0.971,0.471,0.608,0.918
CUACUUCAACCAAUCGGCCUG [Fam1A.1 aminoacylation ribozyme variant],42.2,2.86,1.86,47.8,1.83,1.79
CUACUUCAAACGAACGGUCUG [Fam1A.1 aminoacylation ribozyme variant],0.289,0.392,0.764,1.07,0.67,0.605
AUUGCCCUGGUCAUCCAGUGA [Fam2.1 aminoacylation ribozyme variant],7.66,7.38,4.02,44.4,6.42,3.7
CGACUUCGAACAAUCGGUCUG [Fam1A.1 aminoacylation ribozyme variant],0.992,0.978,1.1,1.83,1.04,1.14
CCACAAUUCAAGCAAACGGUC [Fam1B.1 aminoacylation ribozyme variant],1.01,0.788,1.12,1.17,0.881,0.92
AUUCACCGAGGUCAUCUGGUG [Fam2.2 aminoacylation ribozyme variant],3.61,5.72,2.69,34.6,4.31,2.39
CUACUUCGAACAAUUGGUCUG [Fam1A.1 aminoacylation ribozyme variant],0.27,0.566,0.617,0.291,0.744,0.599
AUUACCCUCGUCAUCGAAUGA [Fam2.1 aminoacylation ribozyme variant],0.356,0.692,0.849,0.573,0.728,0.744
AUUCAACUCGGUCAUCGGGUG [Fam2.2 aminoacylation ribozyme variant],7.4,9.77,3.84,67.4,6.48,4.15
CUACAUCAAACAGUCGGUCUG [Fam1A.1 aminoacylation ribozyme variant],0.579,0.886,1.15,0.766,0.945,0.866
AUUACACUGGUCAUCCAGUGA [Fam2.1 aminoacylation ribozyme variant],3.06,3.01,1.93,9.37,3.47,1.69
CUACUUCUAACAACCGGUCUG [Fam1A.1 aminoacylation ribozyme variant],0.625,0.703,0.812,0.761,0.802,0.776
